These are yes or no findings as the source states them, for the method shown. Binding seen in cells or lysates may run through a third protein. Some binding calls cover weakened binding; strength is not graded here. Where a sequence is shown, tags or fusion partners need not be part of it.
Target: T1, Flag-tagged IPO5 (Importin 5) (UniProt O00410)
T1 sequence: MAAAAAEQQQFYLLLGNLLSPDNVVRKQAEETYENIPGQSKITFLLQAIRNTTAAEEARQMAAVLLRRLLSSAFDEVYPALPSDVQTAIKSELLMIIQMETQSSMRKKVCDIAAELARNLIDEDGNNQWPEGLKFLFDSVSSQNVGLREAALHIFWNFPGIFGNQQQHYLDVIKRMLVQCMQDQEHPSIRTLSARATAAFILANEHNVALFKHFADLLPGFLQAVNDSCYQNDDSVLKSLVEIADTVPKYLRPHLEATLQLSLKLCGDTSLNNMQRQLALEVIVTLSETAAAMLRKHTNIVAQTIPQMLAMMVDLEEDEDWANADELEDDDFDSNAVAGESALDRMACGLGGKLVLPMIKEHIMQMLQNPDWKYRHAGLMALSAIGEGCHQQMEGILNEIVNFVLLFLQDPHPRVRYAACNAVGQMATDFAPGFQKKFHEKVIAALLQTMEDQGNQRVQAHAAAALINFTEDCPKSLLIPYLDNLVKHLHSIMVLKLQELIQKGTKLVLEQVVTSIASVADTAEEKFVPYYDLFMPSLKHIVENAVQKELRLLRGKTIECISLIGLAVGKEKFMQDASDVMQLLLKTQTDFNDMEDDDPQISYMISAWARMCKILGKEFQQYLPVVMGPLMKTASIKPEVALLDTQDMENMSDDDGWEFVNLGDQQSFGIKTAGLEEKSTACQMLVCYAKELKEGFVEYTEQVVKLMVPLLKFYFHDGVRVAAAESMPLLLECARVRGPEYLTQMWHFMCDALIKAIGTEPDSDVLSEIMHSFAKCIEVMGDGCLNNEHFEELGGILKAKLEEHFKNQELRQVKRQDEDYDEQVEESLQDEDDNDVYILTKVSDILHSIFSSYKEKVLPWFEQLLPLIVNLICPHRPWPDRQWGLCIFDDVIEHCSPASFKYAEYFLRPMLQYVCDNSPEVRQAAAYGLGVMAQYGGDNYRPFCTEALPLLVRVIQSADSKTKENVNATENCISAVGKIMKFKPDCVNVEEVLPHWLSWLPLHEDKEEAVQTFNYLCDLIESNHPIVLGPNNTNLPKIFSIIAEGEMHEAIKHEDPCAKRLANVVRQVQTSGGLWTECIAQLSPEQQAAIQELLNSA
Test: co-IP; HEK 293T cells co-expressing Myc-tagged PD-L1 and Flag-tagged IPO5; lysates incubated with antibody (anti-Flag, anti-Myc or normal IgG) at 4 °C overnight, then protein A/G beads or M2 anti-Flag resin at room temperature 2-3 h; three washes with lysis buffer; Western blot

Sequences of proteins named here, by UniProt entry; tags and fusion partners are left off. Residues count along the entry.
UniProt Q9NZQ7, residues 19-290: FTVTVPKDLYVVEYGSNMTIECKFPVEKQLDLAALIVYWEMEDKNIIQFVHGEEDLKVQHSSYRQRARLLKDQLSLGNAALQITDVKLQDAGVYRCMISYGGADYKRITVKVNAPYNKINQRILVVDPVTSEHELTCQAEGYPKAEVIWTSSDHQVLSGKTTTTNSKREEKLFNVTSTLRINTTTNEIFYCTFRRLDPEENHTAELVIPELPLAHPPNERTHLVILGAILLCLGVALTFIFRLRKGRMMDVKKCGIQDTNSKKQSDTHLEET

## Myc-tagged PD-L1 (programmed cell death-ligand 1) (from UniProt Q9NZQ7 19-290)
  binding: binds

From paper PMC11102480
